Source: PMC10570026
Results are given in words; binding and its absence hold for the method and conditions named. In cells and extracts the contact can be indirect. Binding calls can cover weak binding; strength is not graded here.

T1: Xenopus laevis DONSON (Xenopus laevis (endogenous in egg extract)) (UniProt Q5U4U4)
T1 sequence: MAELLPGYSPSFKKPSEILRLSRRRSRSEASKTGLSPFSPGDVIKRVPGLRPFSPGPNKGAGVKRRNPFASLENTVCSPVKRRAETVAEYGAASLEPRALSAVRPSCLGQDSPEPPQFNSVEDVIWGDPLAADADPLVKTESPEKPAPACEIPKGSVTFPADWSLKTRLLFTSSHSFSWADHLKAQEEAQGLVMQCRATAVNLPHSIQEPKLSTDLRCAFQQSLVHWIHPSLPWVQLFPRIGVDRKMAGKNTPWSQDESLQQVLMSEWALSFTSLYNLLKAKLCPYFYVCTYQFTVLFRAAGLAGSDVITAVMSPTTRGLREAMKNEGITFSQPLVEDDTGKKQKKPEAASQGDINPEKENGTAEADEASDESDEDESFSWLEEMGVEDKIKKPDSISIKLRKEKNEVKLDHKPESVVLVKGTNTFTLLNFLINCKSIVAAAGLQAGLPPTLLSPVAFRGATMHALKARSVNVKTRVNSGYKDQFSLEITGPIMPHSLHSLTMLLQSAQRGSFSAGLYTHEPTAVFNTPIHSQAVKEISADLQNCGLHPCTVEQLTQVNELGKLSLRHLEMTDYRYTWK


Legend:
[1] = target: T1, Xenopus laevis DONSON (Xenopus laevis (endogenous in egg extract)); experiment: co-IP; chromatin replicating in Xenopus egg extract isolated in S-phase (unchallenged, or with aphidicolin and caffeine), complexes released with benzonase and sonication; antibodies (α-Cdc45, α-GINS, α-DONSON, α-TopBP1, α-Treslin) on Dynabeads, 4°C 1-2 h, washes in ANIB100; immunoblot
[2] = target: T1, Xenopus laevis DONSON (Xenopus laevis (endogenous in egg extract)); experiment: co-IP; nuclei with nucleoplasm isolated without detergent from egg extract in mid S-phase (45 min), optionally with p27Kip1 or Cdc7i PHA-767491; benzonase; α-DONSON (rabbit) on Dynabeads Protein A, 4°C 1-2 h; immunoblot
[3] = target: TopBP1 (Xenopus laevis (endogenous in egg extract)); experiment: co-IP; chromatin replicating in Xenopus egg extract isolated in S-phase (unchallenged, or with aphidicolin and caffeine), complexes released with benzonase and sonication; antibodies (α-Cdc45, α-GINS, α-DONSON, α-TopBP1, α-Treslin) on Dynabeads, 4°C 1-2 h, washes in ANIB100; immunoblot

| binding [3] | Molecule | binding [1] | binding [2] |
| --- | --- | --- | --- |
| – | RecQ4 | binds | – |
| – | TopBP1 | binds | binds |
| binds | Xenopus laevis DONSON (protein, UniProt Q5U4U4 1-579) MAELLPGYSPSFKKPSEILRLSRRRSRSEASKTGLSPFSPGDVIKRVPGLRPFSPGPNKGAGVKRRNPFASLENTVCSPVKRRAETVAEYGAASLEPRALSAVRPSCLGQDSPEPPQFNSVEDVIWGDPLAADADPLVKTESPEKPAPACEIPKGSVTFPADWSLKTRLLFTSSHSFSWADHLKAQEEAQGLVMQCRATAVNLPHSIQEPKLSTDLRCAFQQSLVHWIHPSLPWVQLFPRIGVDRKMAGKNTPWSQDESLQQVLMSEWALSFTSLYNLLKAKLCPYFYVCTYQFTVLFRAAGLAGSDVITAVMSPTTRGLREAMKNEGITFSQPLVEDDTGKKQKKPEAASQGDINPEKENGTAEADEASDESDEDESFSWLEEMGVEDKIKKPDSISIKLRKEKNEVKLDHKPESVVLVKGTNTFTLLNFLINCKSIVAAAGLQAGLPPTLLSPVAFRGATMHALKARSVNVKTRVNSGYKDQFSLEITGPIMPHSLHSLTMLLQSAQRGSFSAGLYTHEPTAVFNTPIHSQAVKEISADLQNCGLHPCTVEQLTQVNELGKLSLRHLEMTDYRYTWK | – | – |
